This note sets out measurements from PubChem BioAssay AID493014 (National Center for Advancing Translational Sciences (NCATS), 2011).

The test in a line: qHTS Assay to Find Inhibitors of Chronic Active B-Cell Receptor Signaling. The following applies: ABC-DLBCL IkBa-CBG/CBR reporter, luminescence ratio (green luciferase fused to IkBa over red control in TMD8 lymphoma cells), 4 h. Put shortly:
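Compounds up to 46 uM were incubated four hours with TMD8 cells whose green CBG68 luciferase is fused to IkappaBalpha; red CBR luminescence normalised the signal, and concentration-effect curves were fitted to fusion, red and ratio data.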

Where [1] appears, read: measured here: CBR red luminescence, cell number.
Setting [2] is: measured here: IkBa-CBG green luminescence.

This is one part of the list. The main result of the screen is listed elsewhere. These columns were measured beside it and carry no call. Most of these compounds were active or inconclusive in the main read-out, so they are no random draw. Words in brackets tell the shape of the fitted curve; partial curves, single points and poor fits give uncertain potencies.

A word on the AC50: it is the midpoint of the concentration-response curve, whichever way the signal moves. Regarding `Cc1ccc(-c2cc(C(=O)N3CCC4(CC3)OCCO4)no2)cc1`, under setting [1], the AC50 is 7.94 µM [rising, partial curve, poor fit].

Take `FC(F)(F)c1ccc2c(c1)nnn2C1CCN(Cc2nnnn2Cc2ccccc2)CC1`: the half-maximal activity concentration (AC50) under setting [1] was 20 µM [falling, single point]. The same measure, in the same setting: the value for `CCCCCCCCCOc1ccc2[nH]cc(CCN)c2c1` was 5.62 µM [rising, single point]; that for `CCN(CC)C(=O)c1ccc(NC(=O)Nc2ccccc2F)cc1` was 20 µM [falling, single point].

`COC(=O)c1ccc(NC(=O)CSc2nc3ccc(N4C(=O)C5C6C=CC(C6)C5C4=O)cc3s2)cc1` (centres undefined): the half-maximal activity concentration (AC50) is 14.6 µM [falling, partial curve, poor fit] under setting [1] and 16.4 µM [rising, partial curve, poor fit] under setting [2].

In the case of `CCNc1cc(N2CCNCC2)ccc1[N+](=O)[O-]`, the AC50 by setting is: under setting [1], 6.31 µM [rising, full curve, poor fit]; under setting [2], 14.1 µM [falling, partial curve, poor fit]. In the case of `Cc1ccccc1-n1c(O)c(/C=N/NC(=O)c2ccccc2O)c(=O)[nH]c1=S`, under setting [1], the AC50 is 2.82 µM [falling, full curve]. On the same count and under the same terms, the value for `C[C@H]1CCCC(=O)CCCCCc2cc(O)cc(O)c2C(=O)O1` was 8.91 µM [falling, partial curve]; that for `CC(C)OP(=O)(OC(C)C)C(Nc1ccccc1)c1ccccc1C(F)(F)F` (centres undefined) was 18.4 µM [falling, partial curve]. As for `O=c1[nH]c(=S)n(C2CC2)c(O)c1C=NCCc1ccccc1`, the half-maximal activity concentration (AC50) under setting [1] is 2 µM [rising, partial curve, poor fit]. On the same count and under the same terms, then `O=S(=O)(CCSc1ccc(C(F)(F)F)cn1)c1ccc(Cl)cc1`, with 11.2 µM [falling, partial curve, poor fit].

As for `CNC(=O)Oc1ccc(-c2cn3cc(Cl)ccc3n2)cc1`, the concentration at half-maximal activity (AC50) under setting [1] is 16.4 µM [falling, partial curve]. Same read-out and setting: then `O=C(CN1CCOCC1)c1ccc(Br)cc1`, with 7.08 µM [falling, partial curve, poor fit]. On the same count and under the same terms, the value for `CSc1nc(N)c(N=Nc2ccc([As](=O)(O)O)cc2)c(=O)[nH]1` was 12.6 µM [falling, partial curve]; that for `Cn1c(O)c(C(=Nc2ccccc2)SCc2ccc(Cl)cc2)c(=O)n(C)c1=O` was 4.47 µM [falling, full curve]; that for `O=C1NCCN2CCCC12` (centres undefined) was 7.08 µM [falling, full curve].

Take `CCCCc1ncc(CN2CCCC(C(=O)c3ccc(SC)cc3)C2)[nH]1` (centres undefined): the AC50 under setting [1] was 11.2 µM [falling, partial curve, poor fit]. For `O=c1c2ccccc2nc(Cc2ccccc2)n1-c1ccccc1O`, the concentration at half-maximal activity (AC50) under setting [1] is 3.55 µM [rising, single point]. Still for that read-out and setting: the value for `Cn1c(O)c(/C=N/c2ncccn2)c(=O)n(C)c1=O` was 6.51 µM [rising, single point]. On to `Cn1cccc1/C=C1/C(=O)NC(=O)N(Cc2ccc(F)cc2)C1=O`, for which the AC50 by setting is: under setting [1], 35.5 µM [rising, single point]; under setting [2], 28.2 µM [falling, single point]. In the case of `COc1ccc(/C=C2/SC(=S)N(c3ccc(S(=O)(=O)Nc4nccs4)cc3)C2=O)cc1`, under setting [1], the AC50 was 11.2 µM [falling, single point]. The same measure, in the same setting: then `O=c1[nH]c(=O)n(CCc2ccccc2)c(O)c1C=NCCCn1ccnc1`, with 0.00517 µM [falling, full curve, poor fit]. On the same count and under the same terms, then `O=C(Cc1c(O)c2ccccc2oc1=O)c1ccc(F)cc1`, with 0.0731 µM [rising, full curve, poor fit]; and `COc1cc(O)cc2c1C(=O)OC(C)CCCC(=O)CCC/C=C\2` (centres undefined), with 14.1 µM [falling, partial curve, poor fit]; and `CCCCn1c(N)c(C(=O)NCCN2CCOCC2)c2nc3ccccc3nc21`, with 25.1 µM [falling, single point].

As to `CN1C(=O)N(C)C(=O)C2(Cc3ccccc3N3CCCC32)C1=O` (centres undefined), the AC50 under setting [1] is 5.62 µM [falling, single point]. Still for that read-out and setting: then `CCCc1c(C)nc(-c2ccc(C)cc2)nc1OC(=O)N(C)C`, with 11.2 µM [rising, single point]; and `O=C(C1CCCN(S(=O)(=O)c2cccc3nsnc23)C1)N1CCC2(CC1)OCCO2` (centres undefined), with 0.206 µM [rising, full curve, poor fit]. The same measure, in the same setting: the value for `COc1ccc(OC)c(N=Cc2c(O)n(Cc3ccccc3)c(=S)[nH]c2=O)c1` was 0.251 µM [falling, full curve, poor fit]; that for `Cc1cccc(-n2c(C)nc3ccccc3c2=O)n1` was 13 µM [rising, partial curve]. Still for that read-out and setting: the value for `COc1ccc(OC)c(/C=N/OC(=O)Nc2ccc(Cl)cc2)c1` was 12.6 µM [rising, partial curve]; that for `COc1cccc(-n2c(=S)[nH]c3ccccc3c2=O)c1` was 2.82 µM [rising, partial curve, poor fit]. For the compound `CCCCCCCCCCn1ccc(=N)cc1`, the AC50 under setting [1] was 11.2 µM [falling, partial curve, poor fit]. The same measure, in the same setting: the value for `COC1=CC(=O)O[C@@H](/C=C/c2ccccc2)C1` was 16.4 µM [rising, single point]. Same read-out and setting: the value for `C=COCCn1c(C)c(C(=O)OCC)c2cc(O)ccc21` was 31.6 µM [rising, single point].

Turning to `CSc1ncc(CN2CCCC(C(=O)c3cccc(Cl)c3)C2)cn1` (centres undefined), under setting [1], the AC50 was 0.708 µM [falling, full curve, poor fit].

Consider `COc1ccc(-c2nn(CCC#N)cc2C(=O)NCc2ccccc2)cc1OC`, for which the AC50 under setting [1] is 3.16 µM [rising, full curve, poor fit]. As for `O=c1[nH]c(=O)n(Cc2ccc(F)cc2)c(O)c1/C=N/Nc1ccccc1`, the AC50 under setting [1] is 1.12 µM [rising, full curve, poor fit]. Same read-out and setting: the value for `CC1CN=C(NCc2ccccc2)S1` (centres undefined) was 29.1 µM [rising, partial curve, poor fit]; that for `CN1CCC(N(C)c2ncnc3ccc(Br)cc23)CC1` was 6.51 µM [falling, partial curve]. Still for that read-out and setting: then `O=C1C2C3CCC(O3)C2C(=O)N1CCO` (centres undefined), with 6.31 µM [rising, single point]; and `O=S(=O)(c1ccc(F)cc1)N1CCCC1c1cccnc1` (centres undefined), with 35.5 µM [falling, single point]; and `CN(C)c1ccc2c(c1)N=C(c1ccco1)OP2(=S)N1CCOCC1` (centres undefined), with 0.891 µM [rising, full curve, poor fit].

On to `Cc1ccc(N2C(=O)NC(=O)/C(=C\c3cc(C)n(-c4sc5c(c4C#N)CCCC5)c3C)C2=O)cc1`, for which the AC50 runs as follows: under setting [1], 18.4 µM [rising, single point]; under setting [2], 20.6 µM [falling, partial curve, poor fit]. For the compound `Cn1/c(=N/NC(=O)c2ccccc2Br)sc2ccccc21`, under setting [1], the AC50 is 10 µM [falling, partial curve]. Still for that read-out and setting: then `COC(=O)C1C2c3ccccc3OC1(C)N=c1s/c(=C/c3cnn(C)c3C)c(=O)n12` (centres undefined), with 6.51 µM [rising, single point]; and `COP(=O)(OC)C(O)C(Cl)(Cl)Cl` (centres undefined), with 2.51 µM [rising, partial curve, poor fit]. As to `CCn1c(NN=O)nc2ccccc21`, the AC50 by setting is: under setting [1], 7.94 µM [falling, partial curve]; under setting [2], 6.31 µM [rising, partial curve, poor fit]. `O=c1[nH]c(O)c(N=Nc2ccc([N+](=O)[O-])cc2)c(=O)[nH]1`: under setting [1], the concentration at half-maximal activity (AC50) is 31.6 µM [falling, single point]. Same read-out and setting: then `c1ccc(Cn2ccnc2)cc1`, with 10 µM [rising, partial curve, poor fit]. Same read-out and setting: then `CC(=O)OC1(c2ccccc2)CCN(C)C2CCCCC21` (centres undefined), with 0.58 µM [falling, full curve, poor fit]. Same read-out and setting: then `CCCCCSc1cc(OC)c(CCN)cc1OC`, with 35.5 µM [falling, single point]. Turning to `O=[N+]([O-])c1ccc(Sc2ncccn2)c([N+](=O)[O-])c1`, under setting [1], the half-maximal activity concentration (AC50) is 14.1 µM [falling, partial curve, poor fit]. The same measure, in the same setting: then `O=C(COC(=O)c1ccc(O)cc1)Nc1ccc(Cl)cc1C(=O)c1ccccc1`, with 29.1 µM [falling, single point]. Same read-out and setting: the value for `CN=C(SCc1cc2c(cc1Cl)OCO2)c1c(O)n(C)c(=O)n(C)c1=O` was 10 µM [falling, partial curve, poor fit]; that for `CCn1nc(C)cc1C(=O)Sc1ccc(Cl)cc1Cl` was 22.4 µM [falling, single point]. Still for that read-out and setting: the value for `COc1ccc(/C=C2\CC/C(=C\c3ccc(OC)c(OC)c3)C2=O)cc1OC` was 3.16 µM [falling, full curve, poor fit]. For `CC(=NCc1ccco1)c1c(O)n(-c2ccc(C)cc2)c(=O)[nH]c1=O`, under setting [1], the concentration at half-maximal activity (AC50) is 3.98 µM [rising, partial curve, poor fit]. The same measure, in the same setting: the value for `Nc1c(C(=O)NCc2ccco2)c2nc3ccccc3nc2n1CCN1CCCCC1` was 23.1 µM [falling, partial curve, poor fit]; that for `O=c1c2ccccc2nc(CNc2ccccc2)n1-c1ccccc1` was 14.1 µM [falling, partial curve]; that for `COc1cc2nc(N3CCN(c4cc(C)ccc4C)CC3)nc(N)c2cc1OC` was 22.4 µM [falling, single point]. The same measure, in the same setting: the value for `Cc1ccsc1/C=C1\C(=O)NC(=S)N(C)C1=O` was 2.82 µM [falling, full curve]. Still for that read-out and setting: then `COC(=O)C1=C(c2ccc(F)cc2OCc2ccccc2)C[C@@H]2CC[C@H]1N2C(=O)N1CCCCC1`, with 11.6 µM [falling, partial curve]. For the compound `CCOC(=O)c1c(C)n(Cc2ccc3c(c2)OCO3)c2ccc(O)cc12`, the concentration at half-maximal activity (AC50) under setting [1] is 3.26 µM [falling, partial curve, poor fit].
